Measurements reported in paper PMC4958305.
Results are given in words; binding and its absence hold for the method and conditions named. In cells and extracts the contact can be indirect. These calls come from enrichment with a bait or labelling near it, and not all partners need be listed.

Chains of the proteins cited; added tags and fusions are not shown.
UniProt O14356: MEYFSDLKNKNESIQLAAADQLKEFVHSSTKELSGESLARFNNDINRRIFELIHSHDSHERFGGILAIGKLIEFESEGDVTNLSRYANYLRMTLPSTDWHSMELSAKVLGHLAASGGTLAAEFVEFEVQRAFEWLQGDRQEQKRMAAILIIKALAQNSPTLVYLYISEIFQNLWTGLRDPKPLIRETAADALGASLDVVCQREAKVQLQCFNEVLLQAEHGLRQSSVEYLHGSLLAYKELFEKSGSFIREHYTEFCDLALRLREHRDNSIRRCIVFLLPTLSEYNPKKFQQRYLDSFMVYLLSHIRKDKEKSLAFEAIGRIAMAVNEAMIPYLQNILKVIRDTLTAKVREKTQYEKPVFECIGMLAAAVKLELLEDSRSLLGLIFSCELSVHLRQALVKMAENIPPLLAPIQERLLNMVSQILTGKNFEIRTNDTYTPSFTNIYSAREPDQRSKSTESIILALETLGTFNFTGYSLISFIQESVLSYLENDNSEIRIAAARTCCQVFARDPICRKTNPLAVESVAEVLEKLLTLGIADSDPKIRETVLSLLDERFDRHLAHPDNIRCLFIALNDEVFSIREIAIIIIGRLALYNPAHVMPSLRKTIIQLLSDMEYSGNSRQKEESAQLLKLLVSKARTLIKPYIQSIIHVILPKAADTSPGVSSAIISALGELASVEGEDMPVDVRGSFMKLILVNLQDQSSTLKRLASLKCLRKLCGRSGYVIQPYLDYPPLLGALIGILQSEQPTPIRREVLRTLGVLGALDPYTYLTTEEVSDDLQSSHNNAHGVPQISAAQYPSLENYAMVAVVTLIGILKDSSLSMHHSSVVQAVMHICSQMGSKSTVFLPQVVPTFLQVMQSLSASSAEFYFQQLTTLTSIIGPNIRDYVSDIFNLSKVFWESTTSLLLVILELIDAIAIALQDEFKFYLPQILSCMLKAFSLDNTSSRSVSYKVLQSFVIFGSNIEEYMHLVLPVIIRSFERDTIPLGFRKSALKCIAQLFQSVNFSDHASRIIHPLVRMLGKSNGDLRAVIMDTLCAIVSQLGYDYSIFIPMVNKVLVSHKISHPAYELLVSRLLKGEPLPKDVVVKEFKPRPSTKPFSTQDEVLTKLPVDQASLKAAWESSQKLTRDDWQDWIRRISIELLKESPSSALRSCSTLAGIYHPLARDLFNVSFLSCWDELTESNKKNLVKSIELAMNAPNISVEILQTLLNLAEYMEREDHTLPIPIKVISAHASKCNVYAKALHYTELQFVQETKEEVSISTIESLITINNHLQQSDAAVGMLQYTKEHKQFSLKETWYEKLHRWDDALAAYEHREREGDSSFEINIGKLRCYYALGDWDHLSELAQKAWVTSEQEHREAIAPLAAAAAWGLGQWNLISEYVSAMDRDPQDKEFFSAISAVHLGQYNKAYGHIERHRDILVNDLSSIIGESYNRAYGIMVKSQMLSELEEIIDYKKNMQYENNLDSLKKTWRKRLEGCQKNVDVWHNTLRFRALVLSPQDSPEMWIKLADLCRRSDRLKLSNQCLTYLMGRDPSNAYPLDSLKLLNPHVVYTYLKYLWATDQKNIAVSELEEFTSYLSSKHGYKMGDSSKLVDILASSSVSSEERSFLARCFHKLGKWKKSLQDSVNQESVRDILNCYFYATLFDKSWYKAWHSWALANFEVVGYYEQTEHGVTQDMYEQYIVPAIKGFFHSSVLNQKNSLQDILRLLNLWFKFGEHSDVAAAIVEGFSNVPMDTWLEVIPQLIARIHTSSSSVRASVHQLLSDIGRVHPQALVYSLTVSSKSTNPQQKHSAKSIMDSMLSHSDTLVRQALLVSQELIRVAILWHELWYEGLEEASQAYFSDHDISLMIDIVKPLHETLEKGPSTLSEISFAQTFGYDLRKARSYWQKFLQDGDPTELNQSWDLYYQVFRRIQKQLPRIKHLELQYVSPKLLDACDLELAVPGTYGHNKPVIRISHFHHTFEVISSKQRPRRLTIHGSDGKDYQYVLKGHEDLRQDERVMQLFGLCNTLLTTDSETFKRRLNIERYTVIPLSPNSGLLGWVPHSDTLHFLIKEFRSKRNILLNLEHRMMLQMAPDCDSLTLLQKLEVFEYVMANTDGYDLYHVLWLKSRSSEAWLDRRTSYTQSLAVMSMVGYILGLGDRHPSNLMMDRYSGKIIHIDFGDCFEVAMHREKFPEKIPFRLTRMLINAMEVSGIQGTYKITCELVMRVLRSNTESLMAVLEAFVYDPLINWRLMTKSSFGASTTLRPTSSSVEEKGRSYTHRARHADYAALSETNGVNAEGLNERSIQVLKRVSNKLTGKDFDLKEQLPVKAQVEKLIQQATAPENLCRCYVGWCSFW
UniProt Q9P7J8: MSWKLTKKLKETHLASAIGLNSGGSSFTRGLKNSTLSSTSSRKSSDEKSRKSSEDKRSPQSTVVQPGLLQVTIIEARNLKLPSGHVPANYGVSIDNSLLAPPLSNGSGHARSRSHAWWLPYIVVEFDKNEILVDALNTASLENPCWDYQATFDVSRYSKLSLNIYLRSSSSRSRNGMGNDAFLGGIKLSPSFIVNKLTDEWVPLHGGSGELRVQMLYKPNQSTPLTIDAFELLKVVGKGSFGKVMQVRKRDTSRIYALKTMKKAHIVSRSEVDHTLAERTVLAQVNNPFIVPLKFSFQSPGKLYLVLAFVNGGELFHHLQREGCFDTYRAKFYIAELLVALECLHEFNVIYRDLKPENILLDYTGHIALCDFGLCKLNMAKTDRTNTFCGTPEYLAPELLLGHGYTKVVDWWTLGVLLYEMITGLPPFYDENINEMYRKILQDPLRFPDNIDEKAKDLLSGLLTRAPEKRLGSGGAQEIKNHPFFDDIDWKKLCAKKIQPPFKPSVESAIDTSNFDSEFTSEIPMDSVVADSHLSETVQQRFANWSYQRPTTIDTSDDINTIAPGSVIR
UniProt O74184: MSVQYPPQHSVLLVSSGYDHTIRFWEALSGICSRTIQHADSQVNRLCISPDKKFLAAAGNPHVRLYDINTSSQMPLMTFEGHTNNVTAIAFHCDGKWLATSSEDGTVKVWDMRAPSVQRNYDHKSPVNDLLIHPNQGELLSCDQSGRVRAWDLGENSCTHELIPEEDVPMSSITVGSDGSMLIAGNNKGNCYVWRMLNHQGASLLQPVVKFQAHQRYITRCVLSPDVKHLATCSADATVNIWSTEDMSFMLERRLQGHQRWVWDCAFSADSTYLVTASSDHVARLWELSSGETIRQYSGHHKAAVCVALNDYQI
UniProt Q10059: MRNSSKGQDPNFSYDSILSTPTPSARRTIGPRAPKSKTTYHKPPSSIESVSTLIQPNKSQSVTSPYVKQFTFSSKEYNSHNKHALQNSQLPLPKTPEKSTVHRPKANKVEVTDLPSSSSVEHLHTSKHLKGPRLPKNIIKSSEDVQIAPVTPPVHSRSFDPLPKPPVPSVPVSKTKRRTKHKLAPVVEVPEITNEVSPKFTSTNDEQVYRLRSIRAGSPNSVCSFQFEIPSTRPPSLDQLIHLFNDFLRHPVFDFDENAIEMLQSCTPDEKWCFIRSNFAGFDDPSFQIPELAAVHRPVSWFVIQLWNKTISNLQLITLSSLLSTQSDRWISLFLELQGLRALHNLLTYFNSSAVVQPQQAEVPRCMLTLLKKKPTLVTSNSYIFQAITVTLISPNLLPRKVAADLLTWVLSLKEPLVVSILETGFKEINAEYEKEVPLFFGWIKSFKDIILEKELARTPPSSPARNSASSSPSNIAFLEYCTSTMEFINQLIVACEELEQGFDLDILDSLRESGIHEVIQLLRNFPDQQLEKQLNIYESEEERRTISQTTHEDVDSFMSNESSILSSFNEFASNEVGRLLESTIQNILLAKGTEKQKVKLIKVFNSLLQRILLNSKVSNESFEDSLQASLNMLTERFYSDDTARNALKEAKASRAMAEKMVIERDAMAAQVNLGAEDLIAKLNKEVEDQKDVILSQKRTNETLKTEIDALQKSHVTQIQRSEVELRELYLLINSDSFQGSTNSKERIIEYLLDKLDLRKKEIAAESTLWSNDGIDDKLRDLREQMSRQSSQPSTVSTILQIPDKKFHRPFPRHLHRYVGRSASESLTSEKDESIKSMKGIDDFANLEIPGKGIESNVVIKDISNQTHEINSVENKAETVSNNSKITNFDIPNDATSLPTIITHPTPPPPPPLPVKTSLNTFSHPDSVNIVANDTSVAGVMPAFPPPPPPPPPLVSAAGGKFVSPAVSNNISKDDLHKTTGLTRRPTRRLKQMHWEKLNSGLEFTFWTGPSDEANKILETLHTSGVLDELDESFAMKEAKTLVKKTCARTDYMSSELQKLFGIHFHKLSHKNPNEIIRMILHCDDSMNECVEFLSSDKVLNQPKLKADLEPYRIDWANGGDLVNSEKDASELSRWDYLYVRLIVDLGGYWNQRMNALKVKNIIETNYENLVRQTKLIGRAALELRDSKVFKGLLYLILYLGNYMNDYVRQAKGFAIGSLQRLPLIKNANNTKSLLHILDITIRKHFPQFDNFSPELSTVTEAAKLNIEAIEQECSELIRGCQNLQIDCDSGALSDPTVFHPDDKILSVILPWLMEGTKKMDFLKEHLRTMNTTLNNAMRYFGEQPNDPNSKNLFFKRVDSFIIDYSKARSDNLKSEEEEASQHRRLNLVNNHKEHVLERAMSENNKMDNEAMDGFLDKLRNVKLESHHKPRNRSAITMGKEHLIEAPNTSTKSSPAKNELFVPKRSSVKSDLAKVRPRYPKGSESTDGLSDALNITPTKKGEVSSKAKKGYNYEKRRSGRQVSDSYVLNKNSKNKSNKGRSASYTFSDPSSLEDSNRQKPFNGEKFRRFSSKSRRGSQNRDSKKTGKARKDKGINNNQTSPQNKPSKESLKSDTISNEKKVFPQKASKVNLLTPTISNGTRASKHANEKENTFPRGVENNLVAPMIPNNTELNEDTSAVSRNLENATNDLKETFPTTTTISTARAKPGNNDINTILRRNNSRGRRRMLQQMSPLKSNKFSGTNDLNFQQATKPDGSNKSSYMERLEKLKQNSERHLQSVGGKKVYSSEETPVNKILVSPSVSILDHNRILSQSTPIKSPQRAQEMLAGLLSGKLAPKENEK
UniProt O74805: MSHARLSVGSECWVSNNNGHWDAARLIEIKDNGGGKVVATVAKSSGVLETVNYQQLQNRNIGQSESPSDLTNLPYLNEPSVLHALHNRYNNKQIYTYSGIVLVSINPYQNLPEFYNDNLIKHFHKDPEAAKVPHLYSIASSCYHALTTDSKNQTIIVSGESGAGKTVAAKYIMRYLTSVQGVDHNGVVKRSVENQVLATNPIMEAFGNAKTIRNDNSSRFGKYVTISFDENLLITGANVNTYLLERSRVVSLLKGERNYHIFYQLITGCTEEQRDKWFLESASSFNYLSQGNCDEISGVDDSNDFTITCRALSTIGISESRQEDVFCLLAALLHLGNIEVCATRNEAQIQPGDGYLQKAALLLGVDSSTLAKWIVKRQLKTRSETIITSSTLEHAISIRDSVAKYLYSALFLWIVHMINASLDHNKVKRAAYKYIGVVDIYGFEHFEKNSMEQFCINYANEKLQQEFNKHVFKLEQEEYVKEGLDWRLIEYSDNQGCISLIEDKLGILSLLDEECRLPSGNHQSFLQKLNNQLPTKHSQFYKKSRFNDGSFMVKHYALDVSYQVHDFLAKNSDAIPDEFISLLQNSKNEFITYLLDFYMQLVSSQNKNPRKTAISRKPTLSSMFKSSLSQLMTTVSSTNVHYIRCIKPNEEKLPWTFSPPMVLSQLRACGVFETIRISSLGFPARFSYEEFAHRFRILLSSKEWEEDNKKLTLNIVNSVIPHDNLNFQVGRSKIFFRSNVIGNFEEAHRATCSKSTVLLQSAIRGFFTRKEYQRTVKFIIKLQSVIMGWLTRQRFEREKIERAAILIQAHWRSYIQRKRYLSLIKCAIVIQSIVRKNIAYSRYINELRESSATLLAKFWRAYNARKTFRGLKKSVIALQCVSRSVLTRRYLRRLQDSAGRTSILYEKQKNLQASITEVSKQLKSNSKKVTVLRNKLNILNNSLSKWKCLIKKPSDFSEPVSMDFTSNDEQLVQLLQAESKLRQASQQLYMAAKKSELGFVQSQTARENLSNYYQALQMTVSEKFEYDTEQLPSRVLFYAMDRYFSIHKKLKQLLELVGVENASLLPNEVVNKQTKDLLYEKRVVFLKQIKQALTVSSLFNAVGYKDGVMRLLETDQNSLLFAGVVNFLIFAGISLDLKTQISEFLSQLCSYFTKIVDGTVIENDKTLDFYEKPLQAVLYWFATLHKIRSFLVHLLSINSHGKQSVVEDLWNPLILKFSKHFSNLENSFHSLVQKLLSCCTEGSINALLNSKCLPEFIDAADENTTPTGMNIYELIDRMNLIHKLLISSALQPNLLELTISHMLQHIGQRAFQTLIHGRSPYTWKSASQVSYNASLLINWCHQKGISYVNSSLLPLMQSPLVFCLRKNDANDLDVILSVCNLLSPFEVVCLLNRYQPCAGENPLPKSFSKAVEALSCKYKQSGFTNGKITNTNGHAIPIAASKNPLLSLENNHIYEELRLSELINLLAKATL

B1: Sin1 (protein, UniProt Q9P7Y9 1-665)
chain: MELTREKVLLLTFLRMQYSHILPDSIENRVISTEAPEWELDKSLQDLLIHDYDYSKTSFSSSPPIVANDTVSNVRKPSDTKQVNGAGGQVNHSRAEDSDYATSDLSESSDVGDDDNSCIFSFSKVPMQKDVASIKEEERLDPKISTLNNIDAIANLKLTNMVESSQAVNLTSSKQSSINQQSSVSTDYDDLRSISEESFHLSQGEIPLTFPMNSSLTDTEADAVVAVDALFPGKQRGTHNTVNKARSVSNAKAPTSALRALLEHKENSSQNGPLAENFATFSGHAESNALRLNIYFPSSESPSKPLFVELRKNVLVSEAIGYILLQYVNQQLVPPIEDEAQNPNYWNLRIVEDDGELDEDFPALDRVGPLSKFGFDAFALVKATPAQIKENQAAYPFKSKHPTSIPEANNKTHIRHTSSTSSQSQKQAQDVKDTLNTSHVVQVRLPPYGDNARFCNIEISKTTRLAMVLNQVCWMKQLERFKYTLRVAGSDTVLPLDKTFSSLDGNPTLELVKKKVRDKKGSTQQLPTSSPQNSVYGSIKKDAQSSTYNATDIMSSNTYQEFLVWKRQPVSFMGRHERLLAIDGEYVHIMPSESKNIFETPKTSSIHAGSIILCKQSKKSPCNFKMIVSKNRETKRYDFEVLSALEAAIIVSRIRALMNTVKKIN
B2: Ppk32 (protein, UniProt Q9P7X5 1-749)
chain: MLANALRLVSNSKKIKYDYDIQKENSVQVGPWTVYSASKKGTNEEVSVFTFDKKNLSTLLKRGSIDSNLKTNYVLELLRKDVSSLSRLRHPSLLQVVEPLEESKSSMSFVTRRIQSMLQDFIKSSNGGFSNYGSSANGKSSGNALEEVEIQKGLLQIIDGLVFLHGSAKVIHYNIRPSSVVVDAKGDWKLCGFSFSQSVESARYEFNDYDFGIPSSLQQSMDFLAPEYITHEIAGPESDVFSFGCLIYSIFNKNQSIINANNHLLSYEKEITSLNSPTFIESKNLPSENLKSLLKETLAVDPKQRASMFELERSPYFTGSAIAALRFLESFPEKLPSEKVSFMESLSKNLTTFPYRIQSQKILPTLLDHLNDQKLVPSLLPCIFEISKGLDSSIFSSKVFTAIFPIISAANSYPERVPLCIFQYMDCLKSKLPSGEFLSKIVPFIYGCFENSSLNVQTTSIQILGTLLDIIDVTTVKSSICPKLYHSFSVTNQLDVKVAILDTFNVFINQKFLDSFAIVDKLLPVLEKVKTREPTVVMGMVTVYISAGAIIPEETVHEQVIPRLWILSVSPSLSLEQYNKCMREIRSLSDAVQKSHAKKLQSKPSSVVPNRITTDPFSSQTKEATSKPSSISPNKATTNIFTSQASLSSQGVARETSSASSYRSYSQRASTPAVTAKSSFHYATPTSGLSNFNSVTPSSSASLYPPLIPSEARTPSVQPANRRVTTPVVNQNTVTSDSSNDLGGWKSLL
B3: RICTOR^Ste20 (protein, UniProt Q09743 1-1309)
chain: MKPVRRGQTDTALDISSHAKTNGDFIKKMNTTDSKRLKLLEDLKGKLEVECKIRDGAETLLQVFDTNFKKETKERKEMLKKKCTDELESSKKKIEELVSSIESFQGENGEAKTGSTSLTRSASATVSRKSSLQEKYSTRFSYKAGCSDSCSVTVSGTGELIGPTRNAHSNLTPTVIQRIDFENVNEKNNSSSEDTQPNGKRPSSLQSNFSQFPLNPWLDNIYKACLEGSMKDVIDSSNNLCEYLHEHSDPAYAKNFSLITPTILSMLELNVSEVTASVYRLLRHLFLDATAFSCCQMLNLPWILSKSLLSGTDAYQIEREQAFRLIRTLYFLSSTEGHEDYLSGITRTIISICEHVSDVSRGIAVETLIELMIIRPKILFKANGLRVLMISLIDGSISENLAASAALALVYLLDDPESACYVNLPYDIGILLSPFTSSSSRDTFNSSEEQSEQAAKAMKSSAKVASVLLNSWSGLLALSTNDFQALRSIVDTLRVPSFAPRSDVIDLFFLIFQVEYSSWSESFLAGKRLTVVKNQAVSNDDNINMVNIPDGSNKKYMSLRQHFTAVLLFIFLELGLVESIVCMIRASDDPSASRKATYLLGEVLRLSDELLPIHLGAKIQSLPSLFNMASQFTAEDRFVATSVLQSIESLNRVKFHSATQPFSQTTSLLFKEQKTDGSFRGQRQVEHVKLKMGMQIDDSHFRSMLAETNVLATKNYQKWRWDTLVQIMEGPLLSPKRIDETLRTTKFMRRLLAFYKPFSNRFSSIQNTKPNQKFIKVGCLVFRTLLANPEGVKYLSESKVIKQIAESLSQIDGYSEQVSEPIFSNSRLQKTLTHGYFPMLKVLSSQKEGHAIMERWRIFTTLYHLTELRNRDDLIIIFLTNLDYRLEGHTRIIFSKALNTGQQAVRLTATKHLAALINSESANDNLNHWAISLLIFQLYDPCLEVCKTAVKVLNEVCARNENLLAQVVQLQPSLAHLGEIGSPLLLRFLATTVGFHYLSEINFIEHELDNWYHHRNIDYVDLLEQNFFLSFVSNLKIIDKKNNEPDENILPLHFYGELVKSPQGCEVLESSGHFESFMGTLVEFYDKPLGNEAIRQLKSALWAIGNIGKTDQGITFLINHDTIPLIVKYAENSLIPTVRGTAYFVLGLISRTSKGVEILESLHWYSLMSLMGTSQGICIPRHAGQVLSTPRRNVEFVNERVPTPEFSSLLSSLTNSEREVIRLVSNLSNHVLTNESARQLTKIRSKNAKVFSSKRLVKACMTILGKFHYRVQIQQFVFELFPYSVLLSSSTSQDLNESPSRPNNLSISA

Target: Tor1 (S. pombe (endogenous in S. pombe cells)) (UniProt O14356)
Experiment: affinity purification with mass spectrometry; anti-Tor1 antibodies on protein G Dynabeads, cleared extract of wild-type S. pombe (JP350), 60 min at 4°C, washes with 200 mM NaCl; control without antibody; three independent experiments

binding, binds:
Gad8 (from UniProt Q9P7J8 1-569), Pop3 (from UniProt O74184 1-314), Cdc12 (from UniProt Q10059 1-1841), Myp2 (from UniProt O14157 1-2104), Myo51 (from UniProt O74805 1-1471), B1, B2, B3
